In PMC12040169 (PLOS Biology, 2025):
The list shows a part of the results.

Test system: T1, CTL2-GFP (C. trachomatis L2/434/Bu, GFP-expressing)
T1 construct: L2/434/Bu, GFP-expressing
Set-up: species or system HeLa; Intracellular C. trachomatis growth in HeLa cells, bulk GFP fluorescence relative to DMSO
Settings: bulk GFP, single well; 28.5 h, 10 µM; inhibitor

Compared with `O=C(O)CC1SC(Nc2cc(C(F)(F)F)cc(C(F)(F)F)c2)=NC1=O` (stereo not shown) [CBK059095], `O=C(NCc1ccccc1)c1cnccc1C(F)(F)F` [CBK200194] is higher in “% of control remaining” value: 97.6388% for the first, 101.973% for the second.

First: Clc1cncc(OC(c2ccccc2)C2CC2)n1 (stereo not shown) [CBK176042]
Second: CCOc1cc(CCC(=O)NC(C)c2ccccc2)on1 (stereo not shown) [CBK282597]
The “% of control remaining” value of the first is higher: 147.469% for the first, 136.837% for the second.

Going from `O=C(COc1ccc(-c2ccccc2)cc1)N1CCN(S(=O)(=O)c2ccccc2[N+](=O)[O-])CC1` [CBK264154] to `COc1cccc(CC(=O)N2CCC(Cc3ccccc3-c3ccccc3)(C(N)=O)CC2)c1` [CBK285730], the “% of control remaining” value rises from 137.228% to 138.906%.

Going from `COCC(C)NCc1ccccc1C` (stereo not shown) [CBK027852] to `Cn1c(-c2ccccc2F)n[nH]c1=S` [CBK028811], the “% of control remaining” value rises from 98.9381% to 137.988%.

Compared with `O=C(O)c1ccc(NS(=O)(=O)Cc2ccccc2[N+](=O)[O-])cc1` [CBK034054], `Cc1ccc(C(=O)C2=C(O)C(=O)N(CCO)C2c2ccccc2[N+](=O)[O-])cc1` (stereo not shown) [CBK263822] is higher in “% of control remaining” value: 106.854% for the first, 110.643% for the second.

First: O=C(/C=C/c1ccc2c(c1)OCO2)N1CCN(C(=O)c2ccco2)CC1 [CBK144459]
Second: O=C(c1ccco1)N1CCN(c2ncc(-c3ccc(N4CCOCC4)cc3)n3ccnc23)CC1 [CBK091225]
The “% of control remaining” value of the first is higher: 109.886% for the first, 85.2419% for the second.

Compared with `Cn1ncc(C#N)c1NC(=O)C1CC(c2ccc(Cl)c(Cl)c2)=NO1` (stereo not shown) [CBK267478], `O=S(=O)(NCCc1nc2ccccc2[nH]1)c1ccc(Cl)c(Cl)c1` [CBK264416] is lower in “% of control remaining” value: 123.81% for the first, 107.36% for the second.

Compared with `O=C(O)CCc1ccc(-c2cn3ccnc3c(Nc3ccc(Br)cc3)n2)cc1` [CBK038058], `O=C(CSc1nccn(-c2ccc(F)cc2)c1=O)Nc1ccc(F)cc1` [CBK287768] is higher in “% of control remaining” value: 104.424% for the first, 111.713% for the second.

Going from `CCCC1(OC(=O)Nc2ccc(Cl)cc2)CCCCC1` [CBK026295] to `CNC1(c2nnnn2CCOC(=O)Nc2ccc(Cl)cc2)CCCC1` [CBK266253], the “% of control remaining” value falls from 117.452% to 104.658%.

Going from `C=CCNC(=O)N[C@H]1[C@H](O)[C@@H](N2CCC(C(=O)OC)CC2)[C@@H]2OC[C@H]1O2` [CBK288807] to `O=C(NCc1ccc(C(=O)O)cc1)NC1CCCCC1` [CBK286980], the “% of control remaining” value falls from 145.077% to 131.895%.

Compared with `C/C(=N\NC(=O)CCN1CCN(C)CC1)c1ccc(O)cc1` [CBK263142], `CN1CCN(CCCNC(=O)N2CCN(c3ccccc3)CC2)CC1` [CBK155168] is higher in “% of control remaining” value: 101.205% for the first, 105.722% for the second.

Going from `O=C(Nc1cnc(-c2cccc(C(F)(F)F)c2)c(-c2ccco2)n1)c1ccccn1` [CBK036873] to `O=C(CCOc1ccccc1)Nc1cnc(-c2ccc(F)cc2)c(-c2ccco2)n1` [CBK036967], the “% of control remaining” value falls from 135.024% to 112.175%.

First: O=C(Nc1ccc(F)c(F)c1)N[C@H]1CC[C@@]2(c3cccc(Br)c3)CCN(Cc3ccccc3)[C@H]2C1 [CBK047515]
Second: COc1ccc([C@@]23CC[C@@H](NC(=O)Nc4cc(C)nc(C)c4)C[C@@H]2N(C)CC3)cc1OC [CBK045876]
The “% of control remaining” value of the first is lower: 93.5303% for the first, 120.142% for the second.

Going from `CCOc1cc(OCC)cc(C(=O)N2CCCC3(CC2)CC(=O)c2ccc(C)cc2O3)c1` (stereo not shown) [CBK168241] to `Cc1ccc2[nH]c(C)c(CC(=O)N(C)CCN3CCCCC3)c2c1` [CBK282749], the “% of control remaining” value falls from 137.401% to 126.487%.

First: COCCN1C(=O)C2(CC(=O)N(CCN3CCCC3=O)C2=O)c2cc(OC)ccc21 (stereo not shown) [CBK075189]
Second: CCN1C(=O)CC2(C1=O)C(=O)N(CC)c1ccc(C)cc12 (stereo not shown) [CBK075140]
The “% of control remaining” value of the first is higher: 122.951% for the first, 107.69% for the second.

First: COc1cccc(NC(=O)c2cncc(-c3ccc(C(=O)N4CCOCC4)cc3)c2)c1 [CBK160213]
Second: O=C(Nc1ccccc1)Nc1ccc(=O)n2c1[C@@H]1C[C@@H](CN(C(=O)c3ccc(F)cc3)C1)C2 [CBK288714]
The “% of control remaining” value of the first is lower: 93.7468% for the first, 106.298% for the second.

Compared with `O=C(Nc1ccc(C(F)(F)F)cc1)N(Cc1ccc2ccccc2c1)CC1CCNCC1` [CBK056720], `CC(=O)Nc1ccc(S(=O)(=O)NC2(C(F)(F)F)N=C(c3ccccc3)NC2=O)cc1` (stereo not shown) [CBK267932] is higher in “% of control remaining” value: 131.039% for the first, 137.125% for the second.

First: CC(=O)Oc1cc(C(F)(F)F)nc(NCc2ccc(Cl)cc2)n1 [CBK000500]
Second: COc1cccc(-c2cnc3[nH]c(=O)n(Cc4ccc(Cl)cc4)c3n2)c1 [CBK064596]
The “% of control remaining” value of the first is higher: 96.5497% for the first, 88.2897% for the second.

Going from `CCn1cc(C(=O)N2CCn3cc(C(F)(F)F)nc3C2)c(C)n1` [CBK283916] to `Cc1nn(CC(=O)N2CCCCC2)c(=O)c2cc3sccc3n12` [CBK284040], the “% of control remaining” value falls from 119.813% to 107.89%.

First: O=C(NCc1nnc(-c2cccs2)o1)c1cccc(Cl)c1 [CBK284633]
Second: COc1cccc2cc(C(=O)NCc3ccc(NS(C)(=O)=O)cc3)oc12 [CBK161479]
The “% of control remaining” value of the first is higher: 120.353% for the first, 69.5733% for the second.

Compared with `COCCNC(=O)Cn1c(-c2ccco2)cc2cccnc21` [CBK282720], `COc1ccc(CCNC(=O)CCn2nc(C)c(Cl)c2C)cc1C` [CBK281643] is lower in “% of control remaining” value: 159.973% for the first, 111.837% for the second.

Going from `O=C(NCC1CCN(c2ccc(F)c(F)c2)C1)c1c[nH]nc1C1CC1` (stereo not shown) [CBK305409] to `O=C(NCc1nc2ccccc2[nH]1)c1cc(Br)cnc1N1CCOCC1` [CBK076278], the “% of control remaining” value falls from 123.843% to 116.345%.

Going from `CN(c1cccc(NS(=O)(=O)c2ccc3ccccc3c2)c1)S(C)(=O)=O` [CBK267507] to `CCN(CC)C(=O)c1ccsc1NS(=O)(=O)c1ccc(Br)cc1` [CBK042318], the “% of control remaining” value falls from 147.367% to 100%.

Going from `C=CCN1C(=O)C2(CC(=O)N(Cc3ccc(OC)c(OC)c3)C2=O)c2ccccc21` (stereo not shown) [CBK075148] to `COc1ccc(C2=NN(C(=O)CCCC(=O)O)C(c3ccc4nccnc4c3)C2)cc1OC` (stereo not shown) [CBK297785], the “% of control remaining” value rises from 92.6618% to 173.478%.

First: CN1CCC(N(C)C(=O)c2cc3oc(-c4ccccc4)nc3c(=O)n2C)C1 (stereo not shown) [CBK200424T]
Second: CC(=O)c1cn(CCC(=O)NC2CCCN(C)C2)c2ccccc12 (stereo not shown) [CBK282503]
The “% of control remaining” value of the first is lower: 116.757% for the first, 119.17% for the second.

First: C[C@@H]1CN(Cc2ccco2)[C@H](C)CN1CC(=O)Nc1nc2c(s1)CCCC2 [CBK286530]
Second: Cc1cccc(CN2CCC(NC(=O)C3(C#N)CCCC3)CC2)c1 [CBK305781]
The “% of control remaining” value of the first is lower: 133.426% for the first, 186.186% for the second.

Going from `O=C(O)COc1ccc(N2C(=O)c3ccc(Oc4cccc([N+](=O)[O-])c4)cc3C2=O)cc1` [CBK264259] to `O=[N+]([O-])c1cccc(-c2noc(COc3ccc(Br)cc3Cl)n2)c1` [CBK264452], the “% of control remaining” value rises from 113.424% to 116.109%.

Compared with `O=C(C1=C(O)C(=O)N(Cc2cccnc2)C1c1ccncc1)c1ccc(Cl)cc1` (stereo not shown) [CBK264513], `O=C(CSc1ncnc2[nH]ncc12)c1ccc(-c2ccccc2)cc1` [CBK300519] is higher in “% of control remaining” value: 129.668% for the first, 154.006% for the second.

Compared with `COc1ccccc1C(=O)N1CCC(C(=O)N(C)C(c2ccccc2)c2ncccc2C)CC1` (stereo not shown) [CBK060531], `O=C(Cn1nnc2ccccc21)NC(c1ccccc1)c1ccccc1` [CBK297488] is higher in “% of control remaining” value: 100% for the first, 108.006% for the second.

Going from `COc1ccc(Br)cc1S(=O)(=O)NCC(=O)Nc1ccc(F)cc1` [CBK042223] to `COc1ccc(NS(=O)(=O)c2cc(C(=O)O)cc(C)c2C)cc1OC` [CBK295148], the “% of control remaining” value rises from 102.071% to 121.775%.

First: O=C(CC1Nc2ccccc2NC1=O)Nc1ccc(F)c(Cl)c1 (stereo not shown) [CBK266381]
Second: Cc1ccc(Nc2ncc(C(=O)NCCCN3CCCCCC3)c3ccccc23)cc1Cl [CBK291197]
The “% of control remaining” value of the first is lower: 100.938% for the first, 128.824% for the second.

First: C=CCn1c(=O)c(C(=O)NCCCO)c(O)c2ccccc21 [CBK262481]
Second: CN(C)CCCNC(=O)c1ccc([N+](=O)[O-])o1 [CBK262118]
The “% of control remaining” value of the first is higher: 117.405% for the first, 36.3016% for the second.

Going from `Cc1ccc(NC(=O)c2cc(NC(=O)c3ccccc3C(=O)O)ccc2N2CCCCC2)cc1` [CBK265332] to `c1ccc(OCCN2CCCN(c3cc(OCC4COc5ccccc5O4)ncn3)CC2)cc1` (stereo not shown) [CBK083395T], the “% of control remaining” value rises from 105.946% to 125.381%.

`CC(C)CCc1c(O)nc(SCCN2CCOCC2)n(-c2ccccc2)c1=O` [CBK263363C] and `O=[N+]([O-])c1cc(CN2CCN(c3ccccc3)CC2)c(O)c2ncccc12` [CBK218696] are the same in “% of control remaining” value: 100% for the first, 100% for the second.

First: O=[N+]([O-])c1ccc(Sc2cccs2)c(C(F)(F)F)c1 [CBK002621]
Second: CCOc1cc(S(=O)(=O)NCc2ccncc2)ccc1Br [CBK270147]
The “% of control remaining” value of the first is lower: 95.3958% for the first, 115.71% for the second.

First: CN1CCC(N[C@H]2CC(C)(C)[C@@H]3C[C@@](C)(O)CC[C@]23CCC(=O)N2CCOCC2)CC1 [CBK289040]
Second: Cc1ccc(C)c(CC(=O)N(CCC(=O)O)C2CCOCC2)c1 [CBK305469]
The “% of control remaining” value of the first is lower: 146.855% for the first, 158.451% for the second.

First: Cc1nc(CNCc2c(C(C)C)nn(C)c2N(C)C)cs1 [CBK305119]
Second: CC(CNC(=O)COc1cc(Cl)c(Cl)cc1Cl)CN(C)C (stereo not shown) [CBK266766]
The “% of control remaining” value of the first is lower: 121.247% for the first, 175.378% for the second.

Going from `CN(C)CCCn1cccc1C=O` [CBK261993G] to `CC(C)(C)c1ccc(-c2ccc3ccc(N)nc3n2)cc1` [CBK061872], the “% of control remaining” value falls from 107.255% to 92.0488%.
